The other results are listed elsewhere or left out. Construct or isoform of the protein are uncertain.

The target of the assay is T1, ETS1 (UniProt P14921).
T1 sequence: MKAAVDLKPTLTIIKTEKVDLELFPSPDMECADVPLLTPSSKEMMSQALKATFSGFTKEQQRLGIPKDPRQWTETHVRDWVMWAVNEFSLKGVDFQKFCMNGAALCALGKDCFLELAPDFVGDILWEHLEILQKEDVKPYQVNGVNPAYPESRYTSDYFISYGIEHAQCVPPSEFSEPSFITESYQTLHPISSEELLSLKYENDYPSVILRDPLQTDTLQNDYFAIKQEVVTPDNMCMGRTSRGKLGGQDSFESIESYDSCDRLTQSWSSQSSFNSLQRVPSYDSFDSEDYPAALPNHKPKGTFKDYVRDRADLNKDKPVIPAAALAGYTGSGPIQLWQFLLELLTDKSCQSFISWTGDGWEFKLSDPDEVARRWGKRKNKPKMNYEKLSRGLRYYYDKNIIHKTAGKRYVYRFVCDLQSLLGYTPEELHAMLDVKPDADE
The experiment in a line: DAPPL (digital affinity profiling via proximity ligation, sequencing). Particulars: 10 mM Tris-HCl pH 7.5, 50 mM NaCl, 1 mM DTT, 4% glycerol, room temperature, 30 min; GST-TFs on glutathione beads, 16-mer random dsDNA library, 0.1% …; high values mean tight binding; double strand, one strand shown; scale: fold enrichment (6-mer frequency, TF over GST control).
As for ATGACT, the binding signal is 1.41.

The sequence TATTGT registered a binding signal of 1.37.

Regarding ATCTGT, the binding signal was 1.2.

As to CCGATA, the binding signal was 1.05.

Sequence CTCTTT yielded a binding signal of 1.42.

In the case of TCCCAA, the binding signal was 1.17.

In turn, AAACAT gave a binding signal of 1.47.

TGGAAA yielded a binding signal of 1.08.

ATTCAG registered a binding signal of 1.2.

In the case of ATCCTG, the binding signal turned out to be 1.41.

ATTTTT gave a binding signal of 1.24.

In the case of TTCGAA, the binding signal amounted to 1.25.

In the case of GGAAGC, the binding signal stood at 1.58.

AACACA showed a binding signal of 1.44.

Consider AACTCG, for which the binding signal was 1.4.

TAACAA returned a binding signal of 1.26.

CATACT returned a binding signal of 1.39.

For the sequence CTGTTT, the binding signal was found to be 1.33.

As for CACTCT, the binding signal stood at 1.3.

Sequence GGGCTA gave a binding signal of 1.13.

Sequence TTTTTA came in with a binding signal of 1.44.

The sequence ACATCA showed a binding signal of 1.18.

In turn, TACTTA displayed a binding signal of 1.18.

The sequence CGCTTT showed a binding signal of 1.14.

The sequence AAACCC displayed a binding signal of 1.39.

Consider GCTTTA, for which the binding signal is 1.1.

Turning to ATAACT, the binding signal was found to be 1.24.

With CGTCTC, the binding signal turned out to be 1.58.

As for TCTTCA, the binding signal amounted to 1.25.

On to CGAGTT, for which the binding signal came out at 1.11.

Sequence TACGCC displayed a binding signal of 1.24.

Consider ATACAA, for which the binding signal amounted to 1.13.

Sequence ATGTAC returned a binding signal of 1.37.

Turning to TCCTCA, the binding signal came to 1.59.

Sequence TCCCTC gave a binding signal of 1.42.

In the case of GCCTTT, the binding signal is 1.26.

For GCTCGT, the binding signal was determined as 1.23.

CACAAT gave a binding signal of 1.11.

On to TTGTAC, for which the binding signal is 1.47.

Values taken from paper PMC7862700.
